IC50 data for one compound are collected here from patent US10092584B2 (Achillion Pharmaceuticals, Inc., priority 2015, dated 2018).

By UniProt entry, the sequences of proteins in these tests, tags left out. Residues count along the entry.
UniProt P00746, 26-253: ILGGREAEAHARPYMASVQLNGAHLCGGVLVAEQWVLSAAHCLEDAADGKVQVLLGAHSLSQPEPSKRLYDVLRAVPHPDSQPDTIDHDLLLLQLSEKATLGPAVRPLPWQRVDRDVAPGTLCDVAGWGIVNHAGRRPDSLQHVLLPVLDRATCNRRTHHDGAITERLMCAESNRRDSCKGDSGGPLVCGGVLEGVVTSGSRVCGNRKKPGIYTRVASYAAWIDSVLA

This experiment concerns the target T1, Human Factor D (Homo sapiens, UniProt P00746).
T1 construct: purified from human serum; purchased Complement Technology, Inc; host or cells: human serum
Description: Human Factor D assay (Example 8). It is filed as biochemical. The procedure: Human Factor D (purified from human serum, Complement Technology, Inc.) at 80 nM final concentration was incubated with test compound at various concentrations for 5 minutes at room temperature in 50 mM Tris, 1M NaCl, pH 7.5. A synthetic substrate Z-L-Lys-SBzl and DTNB (Ellman's reagent) are added to final concentrations of 100 μM each. […] IC50 values are calculated by nonlinear regression of complement Factor D reaction rates as a function of test compound concentration.

Each structure is given as a SMILES string.

Consider `CC(=O)c1cn(CC(=O)N2C[C@H](F)C[C@H]2C(=O)NC2Cc3ccccc3C2)c2ccccc12` [Compound 43, (2S,4R)-1-(2-(3-acetyl-1H-indol-1-yl)acetyl)-N-(2,3-dihydro-1H-inden-2-yl)-4-fluoropyrrolidine-2-carboxamide], for which the IC50 (usually the concentration that gives 50% inhibition) is under 1000 nM.
